The values that follow come from publication doi:10.1101/437947.

Amino acid sequences for entries named in this document (tags omitted).
UniProt P83949, whole entry: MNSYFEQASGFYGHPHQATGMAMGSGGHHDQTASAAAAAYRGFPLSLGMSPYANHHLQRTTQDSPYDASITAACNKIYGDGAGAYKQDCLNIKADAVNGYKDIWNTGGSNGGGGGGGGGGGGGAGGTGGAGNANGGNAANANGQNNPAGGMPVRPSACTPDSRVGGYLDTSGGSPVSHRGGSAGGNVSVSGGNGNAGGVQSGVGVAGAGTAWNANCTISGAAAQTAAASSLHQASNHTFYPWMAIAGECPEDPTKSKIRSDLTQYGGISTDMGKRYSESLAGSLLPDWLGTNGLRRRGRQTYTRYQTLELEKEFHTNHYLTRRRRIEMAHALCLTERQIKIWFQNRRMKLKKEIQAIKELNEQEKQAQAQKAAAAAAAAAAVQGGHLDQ
UniProt Q8ST83, whole entry: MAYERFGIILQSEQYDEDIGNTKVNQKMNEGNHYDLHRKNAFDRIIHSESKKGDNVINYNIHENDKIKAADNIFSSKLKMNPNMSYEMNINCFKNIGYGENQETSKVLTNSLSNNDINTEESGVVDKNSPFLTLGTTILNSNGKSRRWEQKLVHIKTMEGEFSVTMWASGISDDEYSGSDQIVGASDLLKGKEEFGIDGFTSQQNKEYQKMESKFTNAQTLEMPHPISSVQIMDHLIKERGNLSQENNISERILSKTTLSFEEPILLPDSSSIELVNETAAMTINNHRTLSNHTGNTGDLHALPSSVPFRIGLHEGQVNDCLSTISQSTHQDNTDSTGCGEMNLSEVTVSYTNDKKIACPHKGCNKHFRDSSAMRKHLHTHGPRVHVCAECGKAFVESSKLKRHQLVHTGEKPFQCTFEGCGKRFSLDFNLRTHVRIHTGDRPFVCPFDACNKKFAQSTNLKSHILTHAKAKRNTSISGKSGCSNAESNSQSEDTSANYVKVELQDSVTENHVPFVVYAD

Results are given in words; binding and its absence hold for the method and conditions named. Binding seen in cells or lysates may run through a third protein. Some binding calls cover weakened binding; strength is not graded here.

The target in assay [1] is GFP-Ubx WT (Ultrabithorax, exogenous GFP fusion protein) (Drosophila) (UniProt P83949). Briefly: co-IP.
The target in assay [2] is endogenous GFP-Ubx fusion protein (GFP-Ubx^3.005 line) (Drosophila (endogenous locus in embryos)) (UniProt P83949). Briefly: co-IP.

As for “HA-Pho (Pleiohomeotic) (from UniProt Q8ST83 1-520)”, the binding entry in assay [1] is listed as “binds”.
In the case of “Pleiohomeotic (Pho), endogenous (from UniProt Q8ST83 1-520)”, in assay [2], the binding entry is recorded as “binds”.
